Test results published in the supplement of paper PMC3334620.
Whole data set: some 33,000 sequences, median “E-score (-0.5 to 0.5)” near -0.0014, cut for the highest 2% near 0.25. This is one part of the list.

target: T1, Cad1 (UniProt P24813); assay: PBM E-score (8-mer binding enrichment) (E-score (-0.5 to 0.5)); higher = stronger / more preferred TF binding; details: protein concentration: 100 nM; construct: GST-full length
T1 sequence: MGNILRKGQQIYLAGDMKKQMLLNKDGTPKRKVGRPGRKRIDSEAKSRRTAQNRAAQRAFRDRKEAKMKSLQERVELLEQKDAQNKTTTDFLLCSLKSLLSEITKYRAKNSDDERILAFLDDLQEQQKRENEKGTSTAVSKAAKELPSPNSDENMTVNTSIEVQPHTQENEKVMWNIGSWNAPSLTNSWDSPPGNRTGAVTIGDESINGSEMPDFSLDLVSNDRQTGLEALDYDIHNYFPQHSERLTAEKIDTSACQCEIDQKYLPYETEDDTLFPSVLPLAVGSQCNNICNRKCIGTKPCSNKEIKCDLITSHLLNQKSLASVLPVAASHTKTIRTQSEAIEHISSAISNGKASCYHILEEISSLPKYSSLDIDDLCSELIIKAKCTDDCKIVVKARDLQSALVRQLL
Outline: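 Full-length yeast transcription factors or their DNA-binding domains, GST-tagged and expressed with PURExpress, were applied at about 100-200 nM to universal all-10-mer Agilent arrays. These arrays had been made double-stranded by primer extension on fresh or once-stripped slides. Detection used fluorescent anti-GST, normalisation used masliner, and E-scores for ungapped eight-base words pooled with reverse complements came from the Universal PBM Analysis Suite.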

Sequence	PBM E-score
GAGTGGTA	-0.0468
GTCCCCAC	-0.344
ATGTCAAT	0.0742
ATCCCATC	-0.0629
ATTTGGGA	0.0242
ACGTGCCT	0.00963
GTTACAAC	0.126
ATCTTCGG	0.196
AAACTAAT	0.36
CGGACCCC	-0.206
ACATCAGC	-0.0424
GACTAGAA	0.0424
ATCGGCGG	0.12
CTTGGGTA	-0.0741
GGACTGCA	-0.026
GTATCAGA	-0.0422
CAGTTGTC	0.0955
TATAGGAA	0.127
GCCACTCA	0.0465
GACTCACC	-0.189
CTTCGAAC	0.159
CACAACGA	0.0531
CAAGGTGG	-0.0528
CGGTTTCA	0.0848
CGCTGCCC	-0.213

Sequence	PBM E-score
CCTTGTGA	0.00636
AAATCGCA	0.0759
AGCTAAGG	-0.145
ACCACCAC	0.143
AGAAATTC	0.13
AATTATTC	0.245
CGGGGTAG	-0.209
CAGTGCCG	0.00284
GCAGATTA	0.048
ATAACTGG	-0.00558
GAAGGAGA	-0.139
AAATCCAA	0.115
CAGAGAGA	-0.164
GGAGAACA	0.0538
CAAACCTG	0.0184
CTAGCAAG	-0.0274
ACAATCCG	0.115
GGTAAAAC	0.113
CACGTATC	0.0223
CAGGGTCA	-0.343
ATGGAGGA	-0.139
AGGGCGCA	-0.0246
CTGAGCGA	0.026
GAGGCCTA	0.0905
AGAGGAAA	0.106

Sequence	PBM E-score
CTGTAGAA	-0.134
AACTCCGA	0.0113
ACTAACAG	0.193
CCAATTAA	0.018
AAAAACGG	0.229
AGTGTTAA	0.255
GAGTCAGA	0.0308
CCGTTATA	0.11
ACACAGAG	0.0296
ACTGAGCC	-0.0187
AGGACAAT	0.192
ATGCATTA	0.265
GATAGCAA	0.0942
ACAGCCCG	-0.138
AAAACAGT	0.162
ATAGTCTC	0.042
AGTACGGA	-0.0405
ACTCAGAC	0.051
AAAGCTTT	0.235
AGTCTGAA	0.134
ACGCCTTG	-0.0703
AAAAGGCC	-0.139
AGAGAGAA	-0.0532
CTGATGGA	-0.0544
AATCTCTG	0.0651

Sequence	PBM E-score
CAATAAAA	0.0637
CCGGCTGC	-0.00441
ATCGAACG	-0.0756
AAATATGA	0.234
ATGACGCC	-0.27
ACCTACCT	-0.111
GGTGTCGA	0.104
CTGAGGAC	-0.0151
ACATCTGC	-0.0657
ACTACGTC	0.0184
GATCGTCC	0.0342
GAATGGGA	-0.139
ATATCTTC	0.134
CTTGCCCC	-0.262
TTGTTAAA	-0.197
CATAATCC	-0.0234
AGAACAGG	-0.167
GCGCAGTA	0.149
AAGCACCC	-0.185
CACGGTTC	-0.0957
CCGAATTA	-0.0568
GAGTGTAA	-0.18
AGGGAACC	-0.0448
CGATCCTA	-0.0226
GAGCTCGC	0.128

3 records drawn at random from those above:
Sequence	PBM E-score
ATATCTTC	0.134
CATAATCC	-0.0234
AGAACAGG	-0.167

Later entries

Sequence	PBM E-score
ACAACGCG	0.181
AAGGCGGC	-0.0607
AGGGCAAT	-0.0502
AAGGAAAA	0.0961
CCAGTATC	-0.0989
CTATGCGA	-0.0106
CCTTGAGA	0.118
ACATAGTA	0.0314
AACTTAAT	0.231
AACATATG	0.0974
CCAATCAA	0.0672
AGGGTAAA	0.0843
CCCGTGCG	0.0189
GGCTAGCA	-0.135
ACCAGATC	-0.0746
CATGACCA	0.0406
ATAATCAT	0.252
AGACGCGG	0.0502
GGGAATGA	0.0568
GAGGTGCC	-0.035
GCCACTTA	0.0292
ATCTATTG	-0.125
TACGACTA	-0.0114
CAGCATAC	-0.0347
CCCCACTA	-0.235

Some values from the entries so far:
PBM E-score with CCCGTGCG is entered as 0.0189
PBM E-score with ATCTATTG is entered as -0.125
PBM E-score with AGGGCAAT is entered as -0.0502
PBM E-score with CCCCACTA is entered as -0.235
PBM E-score with CTATGCGA is entered as -0.0106
PBM E-score with CCTTGAGA is entered as 0.118
PBM E-score with ACAACGCG is entered as 0.181

Carrying on.

Sequence	PBM E-score
CAGAGCTC	-0.111
GCACCAAC	0.0419
GCGCGACA	0.063
ACGGGCTC	-0.343
AGGCACAA	-0.186
AGAGATCT	-0.121
GAACCGTC	0.0099
GAGTTACC	-0.0592
ACGGTTCA	-0.195
CAAATTGA	-0.121
AAGCCTCT	-0.188
AAGGTGAG	-0.192
AAGCTGCA	0.0246
TACGAACA	0.135
CGGAAGAA	-0.115
CTACTGCC	-0.162
GCCCTTGA	-0.0525
CAACCTCA	-0.0901
ACGCTAGT	-0.092
CGGTGGCC	-0.0627
AAAAACTG	-0.156
CGGCAGGA	-0.0676
GAGGCTAA	0.0414
CCCGCAAC	0.112
TAGATGAA	-0.00205

Sequence	PBM E-score
GCACACCC	-0.145
CTACGCCA	-0.255
CCGAAGTC	0.0614
TGCATCCA	0.164
TCAGGGCA	-0.0323
ACTACGCT	-0.0695
AAACCCCT	-0.309
ATTAGAAC	0.173
ACATGAGA	0.108
AGCACGCA	-0.00337
TCTGTTAA	0.153
ATGGGCGC	-0.147
GGTAAGCA	0.257
ACGGGTTG	-0.238
GACGGTCC	-0.287
ACAAGTTG	0.0213
GATGTTCA	-0.185
CCTGCGTC	-0.214
AACAAACA	0.148
GCCAACGA	-0.033
AAATTTAG	0.171
CCGGAGCG	-0.129
CAACGGGC	-0.0451
ACGACGAG	-0.0822
AAGCTATT	-0.0735

Sequence	PBM E-score
CTGTTATA	0.0918
AAACGGAG	-0.0203
CAACTTAG	0.138
GATTGTAA	0.197
ACTAGTCT	-0.109
AATGGAGA	-0.113
AGGCAAAG	-0.132
ATTTGTTG	0.125
GACCCTGC	-0.22
AGGGATAA	0.0184
ATTCACGA	0.0324
GCCGCCGA	0.277
CGGTAGGA	-0.0236
CGTGCCGA	-0.0182
ATCCTACG	-0.201
AGGGCGTA	-0.058
GCACCGGC	-0.0831
TACAAGTA	-0.0543
CCGGTCGA	-0.105
AAACATAA	-0.131
TAAACATA	0.221
ATCTACAT	0.0986
GGGTACGA	-0.0805
ATATCCAG	0.0219
CCCACTTC	-0.105

Sequence	PBM E-score
ATAGGGAG	-0.22
ATAATCCA	0.252
GTGCCCAA	0.0779
GAGTATAC	0.0502
CAATACGA	0.149
ACGGTCTG	0.0288
AATCTGAG	-0.0799
CTTTAAAA	0.0136
GACTAAGC	0.228
CAGCTACA	0.0442
GCCTTGCC	-0.151
CAATCAGG	-0.00207
TATGACAA	0.181
CAAGCTTA	0.159
GACTGTCC	-0.25
GCCGGCCC	-0.0332
GGGAAAAC	-0.117
ATTAAGTA	0.136
CGTTAATA	0.134
GGGACAAC	0.0152
CGGTTAGC	-0.0801
ACCATTCG	-0.272
CGTAAGTC	0.0451
ATTGCAAA	0.112
CCGACAAC	0.0144

Sequence	PBM E-score
AATGAGAA	-0.0166
CCTGTACC	-0.193
TATAACAA	0.24
ATTTCGTC	0.0814
CCCGAGGG	-0.11
GTGAAGTA	-0.00442
ACCCACCT	-0.236
AGTCGAAT	-0.0974
AACCGTTC	0.136
AGGTGGGC	-0.179
CCTGTCAC	-0.103
GAGAAGTA	-0.0394
ATTGCACA	0.00451
CGCACGAC	-0.0123
CGGGGAGC	-0.236
CGTCACAG	0.168
AGTGTGAT	0.0478
ACGCACAC	0.191
ATAAGCGA	0.287
AGTTCCTA	0.131
AGCACCCA	-0.174
GAGGGGGA	-0.425
ATACGAAC	0.134
CTCCCAGA	-0.181
GCCATGGC	-0.0289

Sequence	PBM E-score
ACAGAAGC	0.0315
AAACTACA	0.0808
ACGGCAGA	-0.0245
CATCGAAC	0.0545
ACTGATCG	-0.157
GCCTGGGA	-0.136
ATAATGCG	0.154
GGCTCCCC	-0.343
CGGGATAC	0.0497
ATCATGTG	0.0644
AACTTAGT	0.0252
ATGTACGC	0.0214
GCCCGCAC	0.0116
ACGATATG	0.0812
ACATTTAA	0.253
CTCTTAAC	-0.0361
ACGAGAAC	0.0717
GCACGGTA	-0.0652
CTGACTCC	-0.127
AAACCCTC	-0.143
TGTATAAA	0.028
ACAGAACC	0.0474
TATCAAGA	0.132
AACGCTTG	-0.159
ACCTGATC	-0.111

Sequence	PBM E-score
AACGATGA	-0.00908
ACCCATAT	0.0913
GTTTACGA	0.0667
ACTCGGAG	-0.0623
CCGCTCCG	-0.214
CAGGCGCG	0.0497
CGAGAGCG	0.033
TACTATAA	0.152
CAGCAACC	-0.00386
ACCGATTA	0.123
AATAGGTC	0.0355
ACTCGCTA	-0.041
AATACCTG	-0.0148
GAACAGGC	-0.0362
CCTCCGAA	-0.177
AATAGCGA	0.214
GCCCGGAC	-0.285
AAACCACT	0.0983
CTGATTGA	-0.0321
GCACTTCC	-0.204
TAGGCAAA	-0.158
AAAGGCGG	0.0211
ATTCCCAC	0.00183
AATGAGGC	-0.111
GCAATCAC	-0.0724

Sequence	PBM E-score
CCACAGAC	0.0148
GGACTCAC	-0.0924
ACCGGTGG	-0.361
CGACCCCC	-0.458
GAGGTCAC	-0.0696
CCCCGAAA	-0.0484
ACCTTAAG	-0.104
AATCGTCG	0.0858
ACGAAAGC	0.00748
ATGAACCG	-0.113
TAATCACA	0.121
AATGCGCG	0.305
GTGGTAGA	-0.132
CTCGCGCA	0.113
ACACGCCT	-0.0213
ATCTGCTA	0.112
ATACCCAA	0.125
AATGGCAC	-0.0846
GTCCCCAA	-0.122
GCAGGTAA	0.0008
ACGTTGAC	0.0708
CAAGGCGG	-0.169
AGAAGCTA	-0.198
GCTGATAC	-0.0983
CCCCAGGA	-0.344

7 successive records from above, quoted:
Sequence	PBM E-score
ATGAACCG	-0.113
TAATCACA	0.121
AATGCGCG	0.305
GTGGTAGA	-0.132
CTCGCGCA	0.113
ACACGCCT	-0.0213
ATCTGCTA	0.112

Going on with the list:

Sequence	PBM E-score
CCGTCGAC	-0.0671
AATGACCG	-0.111
GCGTAGAA	0.0302
CACGACCC	0.0135
CGTCTATA	-0.102
ACAGTAGT	0.0284
AACCTAGT	-0.18
ATTTTTAC	0.0299
ACTGTGTG	-0.08
ATGTTGTA	0.11
AGCTGCTG	-0.00461
CTTTCCCC	0.00042
ACTGAAAC	0.177
ACACAAAA	0.0974
CCGTCAGA	-0.347
CCGCCGGC	0.128
AGTCTGAT	-0.0546
CGAGGACA	0.0161
GAGACACC	-0.136
